Measurements published in US20200172489A1, “FLUORESCENT COMPOUND AND AUTOPHAGY DETECTION REAGENT USING SAME” (DOJINDO LABORATORIES, priority 2017, published 2020).
Where a name gives a salt, the structure may show the parent alone. Some entries share one result that the patent states for a list of compounds.

experiment: pH dependence of fluorescent intensity of the fluorescent compounds; type: physicochemical; conditions: FIG. 1 / FIG. 9

SMILES | pH (acidic condition) under which the fluorescent intensity increases
CCCCCN1C(=O)c2cccc3c(N4CCN(CCN)CC4)ccc(c23)C1=O [Compound 4b, 2-(4-(1,3-dioxo-2-pentyl-2,3-dihydro-1H-benzo[de]isoquinolin-6-yl)piperazin-1-yl)ethane-1-amine hydrochloride salt] | less than 6
CCC(CN)N1CCN(c2ccc3c4c(cccc24)C(=O)N(CCNC(=O)OC(C)(C)C)C3=O)CC1.Cl (stereo not shown) [Compound 4f, 2-(4-(2-(2-((tert-butoxycarbonyl)amino)ethyl)-1,3-dioxo-2,3-dihydro-1H-benzo[de]isoquinolin-6-yl)piperazin-1-yl)butane-1-amine hydrochloride salt] | less than 6
CCCN1C(=O)c2cccc3c(N4CCN(CCN)CC4)ccc(c23)C1=O.Cl [Compound 4a, 2-(4-(1,3-dioxo-2-propyl-2,3-dihydro-1H-benzo[de]isoquinolin-6-yl)piperazin-1-yl) ethane-1-amine hydrochloride salt] | less than 6
CCCCCCCN1C(=O)c2cccc3c(N4CCN(CCN)CC4)ccc(c23)C1=O.Cl [Compound 4c, 2-(4-(2-heptyl-1,3-dioxo-2,3-dihydro-1H-benzo[de]isoquinolin-6-yl)piperazin-1-yl)ethane-1-amine hydrochloride salt] | less than 6
